From patent US20210205286A1
These are yes or no findings as the source states them, for the method shown. For some assays here: In cells and extracts the contact can be indirect. Some results given as binding are weak or reduced against the parent protein; the word gives no strength. For some assays here: Tags and fused reporters may be left off the sequences shown.

Protein sequences, listed by entry. Tags and fused reporters are not part of them. Lines headed by an entry give the natural chain unless they say otherwise; changes in a name come on top. Chains listed by the source or under a name are the forms on record and can include a tag or linker. Residues count along the entry.
UniProt P13473, residues 29-410: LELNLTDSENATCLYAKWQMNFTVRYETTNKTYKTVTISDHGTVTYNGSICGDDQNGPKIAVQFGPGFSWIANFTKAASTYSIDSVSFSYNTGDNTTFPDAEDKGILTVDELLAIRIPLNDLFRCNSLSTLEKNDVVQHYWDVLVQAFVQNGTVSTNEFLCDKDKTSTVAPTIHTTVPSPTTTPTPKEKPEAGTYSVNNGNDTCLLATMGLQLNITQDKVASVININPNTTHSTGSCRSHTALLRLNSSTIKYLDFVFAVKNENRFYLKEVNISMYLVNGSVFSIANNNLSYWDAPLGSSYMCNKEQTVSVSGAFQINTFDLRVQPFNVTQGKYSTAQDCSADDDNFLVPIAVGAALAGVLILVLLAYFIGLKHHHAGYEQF
UniProt Q13131: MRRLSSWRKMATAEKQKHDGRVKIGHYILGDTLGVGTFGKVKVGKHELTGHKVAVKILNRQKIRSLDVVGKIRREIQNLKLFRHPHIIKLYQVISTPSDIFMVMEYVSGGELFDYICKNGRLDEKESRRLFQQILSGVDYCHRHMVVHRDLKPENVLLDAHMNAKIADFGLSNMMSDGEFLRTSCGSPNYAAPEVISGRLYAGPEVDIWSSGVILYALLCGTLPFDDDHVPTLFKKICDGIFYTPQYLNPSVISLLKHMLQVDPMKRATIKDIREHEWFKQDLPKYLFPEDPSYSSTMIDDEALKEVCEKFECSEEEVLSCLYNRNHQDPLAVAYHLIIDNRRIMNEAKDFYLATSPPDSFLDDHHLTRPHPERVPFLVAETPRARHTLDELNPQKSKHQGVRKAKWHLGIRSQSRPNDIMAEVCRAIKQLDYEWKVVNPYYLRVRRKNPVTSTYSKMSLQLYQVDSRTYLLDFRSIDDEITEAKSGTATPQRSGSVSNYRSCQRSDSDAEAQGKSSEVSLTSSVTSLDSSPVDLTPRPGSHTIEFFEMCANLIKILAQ
mCherry-Gal9 (O00182, form named): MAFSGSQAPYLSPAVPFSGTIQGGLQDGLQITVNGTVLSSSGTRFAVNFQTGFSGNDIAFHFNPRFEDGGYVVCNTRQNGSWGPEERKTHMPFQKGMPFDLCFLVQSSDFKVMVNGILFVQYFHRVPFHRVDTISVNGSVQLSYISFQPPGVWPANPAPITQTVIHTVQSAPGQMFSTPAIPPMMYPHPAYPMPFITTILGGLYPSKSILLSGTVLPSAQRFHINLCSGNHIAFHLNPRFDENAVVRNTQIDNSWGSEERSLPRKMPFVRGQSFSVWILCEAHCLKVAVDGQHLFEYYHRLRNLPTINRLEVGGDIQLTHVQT

How the values were obtained:
LAMP2 (endogenous) = LAMP2 (endogenous) (UniProt P13473); assay: APEX2-Gal9 proximity biotinylation, avidin bead enrichment, immunoblot (FIG. 2A)
LAMP1 (endogenous) = target: T1, LAMP1 (endogenous) (UniProt P11279); assay: as above
T1 sequence (looked up): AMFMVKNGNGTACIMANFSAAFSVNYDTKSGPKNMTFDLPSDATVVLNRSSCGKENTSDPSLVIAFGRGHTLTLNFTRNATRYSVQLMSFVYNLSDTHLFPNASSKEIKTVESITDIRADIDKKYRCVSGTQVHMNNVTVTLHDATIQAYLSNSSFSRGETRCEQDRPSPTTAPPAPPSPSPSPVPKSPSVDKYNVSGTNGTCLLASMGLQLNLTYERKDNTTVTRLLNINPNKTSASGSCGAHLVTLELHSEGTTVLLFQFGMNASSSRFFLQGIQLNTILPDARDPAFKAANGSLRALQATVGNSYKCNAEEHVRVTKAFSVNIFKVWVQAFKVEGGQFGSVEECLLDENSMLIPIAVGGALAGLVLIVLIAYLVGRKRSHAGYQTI

AMPKα1 (endogenous) = AMPKα1 (endogenous) (UniProt Q13131); assay: APEX2-Gal9 proximity biotinylation, avidin bead enrichment, immunoblot (FIG. S4A)
GFP-TAK1 [1] = target: T2, GFP-TAK1 (UniProt O43318); assay: co-IP, anti-GFP IP of GFP-TAK1, blot with anti-FLAG, HEK293T, LLOMe (FIG. 4B)
T2 sequence (looked up): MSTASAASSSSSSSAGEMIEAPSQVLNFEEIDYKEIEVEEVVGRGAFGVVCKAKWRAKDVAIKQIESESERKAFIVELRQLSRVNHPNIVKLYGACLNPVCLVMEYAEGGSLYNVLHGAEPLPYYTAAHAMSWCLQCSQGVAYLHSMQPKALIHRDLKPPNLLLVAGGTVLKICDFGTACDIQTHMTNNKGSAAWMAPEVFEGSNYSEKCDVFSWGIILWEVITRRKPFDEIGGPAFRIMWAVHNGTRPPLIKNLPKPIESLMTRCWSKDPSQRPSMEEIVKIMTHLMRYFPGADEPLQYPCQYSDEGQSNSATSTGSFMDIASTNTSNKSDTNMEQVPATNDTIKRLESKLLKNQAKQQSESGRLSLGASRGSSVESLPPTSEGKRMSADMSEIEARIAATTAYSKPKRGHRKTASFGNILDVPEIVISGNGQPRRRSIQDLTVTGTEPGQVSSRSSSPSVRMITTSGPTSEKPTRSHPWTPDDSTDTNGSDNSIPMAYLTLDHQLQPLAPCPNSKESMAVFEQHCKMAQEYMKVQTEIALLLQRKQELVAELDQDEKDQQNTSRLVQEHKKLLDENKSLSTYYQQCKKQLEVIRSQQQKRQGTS

GFP-TAK1 [2] = target: T2, GFP-TAK1; assay: co-IP, anti-GFP IP, blot with anti-mCherry, HeLa Flp-In Gal9^Tet-ON cells (FIG. S4B)

In the case of “APEX2-myc-Gal9 (from UniProt O00182 1-323)”, the binding (LAMP2 (endogenous)) is reported as “binds”, the binding (LAMP1 (endogenous)) is reported as “binds” and the binding (AMPKα1 (endogenous)) is reported as “binds”.
In the case of “FLAG-Gal9^WT (from UniProt O00182 1-323)”, the binding (GFP-TAK1 [1]) is reported as “binds”.
For “mCherry-Gal9 (from UniProt O00182 1-323)”, the binding (GFP-TAK1 [2]) was “binds”.
